The exact form of at least one protein or probe is not confirmed. For part of these data: A negative result means that nothing was seen under these conditions.
Key:
GST-BrTCP7 = assay: EMSA; settings: 250-fold unlabeled WT probe eliminates the complex; EMSA: 1 ug protein, 2e-6 umol biotin probe, binding buffer (composition and pH not given), 25 min at 30 C, 6% native PAGE, chemiluminescent detection; recombinant protein; protein details: N-terminal GST (pGEX-4T-1); label: 5' biotin
GST = assay: EMSA; settings: tag-only control, same outcome stated for BrRCCR probe; EMSA: 1 ug protein, 2e-6 umol biotin probe, binding buffer (composition and pH not given), 25 min at 30 C, 6% native PAGE, chemiluminescent detection; recombinant protein; protein details: GST; label: 5' biotin

Row | Sequence | binding result (GST-BrTCP7) | binding result (GST)
1 | GCTAGACAGATACATACCTCCGGTCCCACCTGAACCAATCATAGCCTGGC (double strand) [BrOPR3 promoter probe (WT)] | binds | no binding
2 | ATGAGAAGAATTTCGTGGTGGGTGGGTCCCATATGACGGAGATAAAGAAC (double strand) [BrRCCR promoter probe (WT)] | binds | 

Reference: PMC6719003
